Source: article PMC10310818

By UniProt entry, the sequences of proteins in these tests, tags left out. Where a name states a change or a piece, a line headed by the entry shows the natural chain unless it says otherwise.
UniProt Q8LBM8: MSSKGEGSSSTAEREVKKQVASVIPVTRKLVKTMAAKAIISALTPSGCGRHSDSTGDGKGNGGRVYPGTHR

T1: SGS3-3×Flag (pMDC32-SGS3-3×Flag) (Arabidopsis thaliana) (UniProt Q9LDX1)
T1 sequence: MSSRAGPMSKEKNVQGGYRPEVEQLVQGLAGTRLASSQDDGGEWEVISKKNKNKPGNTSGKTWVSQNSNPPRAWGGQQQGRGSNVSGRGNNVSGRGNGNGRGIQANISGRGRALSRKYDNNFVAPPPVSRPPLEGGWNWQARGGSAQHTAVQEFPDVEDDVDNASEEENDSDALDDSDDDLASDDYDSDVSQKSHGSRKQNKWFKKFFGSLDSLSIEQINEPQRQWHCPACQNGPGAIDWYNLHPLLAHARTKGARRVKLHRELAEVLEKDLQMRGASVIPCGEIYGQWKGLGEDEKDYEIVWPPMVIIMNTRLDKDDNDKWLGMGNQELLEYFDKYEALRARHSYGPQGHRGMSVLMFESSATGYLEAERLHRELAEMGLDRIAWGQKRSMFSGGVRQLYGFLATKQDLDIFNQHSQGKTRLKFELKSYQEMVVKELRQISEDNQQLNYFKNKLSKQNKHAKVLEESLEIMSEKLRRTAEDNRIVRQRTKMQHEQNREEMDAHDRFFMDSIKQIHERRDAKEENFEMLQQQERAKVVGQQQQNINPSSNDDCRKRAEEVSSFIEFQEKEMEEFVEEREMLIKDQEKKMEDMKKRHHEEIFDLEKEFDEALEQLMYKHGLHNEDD

B1: 1a-Y^N (CMV 1a fused to the N-terminal half of YFP) (protein, UniProt P17769 1-993)
chain: MATSSFNINELVASHGDKGLLATALVDKTAHEQLEEQLQHQRRGRKVYIRNVLGVKDSEVIRNRYGGKYDLHLTQQEFAPHGLAGALRLCETLDCLDSFPSSGLRQDLVLDFGGSWVTHYLRGHNVHCCSPCLGIRDKMRHAERLMNMRKIILNDPQQFDGRQPDFCTQPAADCKVQAHFAISIHGGYDMGFRGLCEAMNAHGTTILKGTMMFDGAMMFDDQGVIPELNCQWRKIRSAFSETEDVTPLVGKLNSTVFSRVRKFKTMVAFDFINESTMSYVHDWENIKSFLTDQTYSYRGMTYGIERCVIHAGIMTYKIIGVPGMCPPELIRHCIWFPSIKDYVGLKIPASQDLVEWKTVRILTSTLRETEEIAMRCYNDKKAWMEQFKVILGVLSAKSSTIVINGMSMQSGERIDINDYHYIGFAILLHTKMKYEQLGKMYDMWNASSISKWFAALTRPLRVFFSSVVHALFPTLRPREEKEFLIKLSTFVTFNEECSFDGGEEWDVISSAAYVATQAVTDGKILAAQKAEKLAEKLAQPVSEVSDSPETSSQTPDDTADVCGREREVSELDSLSAQTRSPITRVAERATAMLEYAAYEKQLHDTTVSNLKRIWNMAGGDDKRNSLEGNLKFVFDTYFTVDPMVNIHFSTGRWMRPVPEGIVYSVGYNERGLGPKSDGELYIVNSECVICNSESLSTVTRSLQAPTGTISQVDGVAGCGKTTAIKSIFEPSTDMIVTANKKSAQDVRMALFKSSDSKEACTFVRTADSVLLNECPTVSRVLVDEVVLLHFGQLCAVMSKLKAVRAICFGDSEQIAFSSRDASFDMRFSKIIPDETSDADTTFRSPQDVVPLVRLMATKALPKGTHSKYTKWVSQSKVKRSVTSRAIASVTLVDLDSSRFYITMTQADKASLISRAKEMNLPKTFWNERIKTVHESQGISEDHVTLVRLKSTKCDLFKQFSYCLVALTRHKVTFRYEYCGVLNGDLIAECVARA

Columns and labels:
[1] = target: T1, SGS3-3×Flag (pMDC32-SGS3-3×Flag) (Arabidopsis thaliana); test: co-IP; competitive co-IP: SGS3-3×Flag (OD600 0.2) and VISP1-GFP (OD600 0.2) with increasing 2b-6×Myc (OD600 0.02, 0.1, 0.5) in N. benthamiana leaves, 1 mM 3-MA at 48 hpi; IP with anti-Flag beads
[2] = target: VISP1-Y^C (VIRUS-INDUCED SMALL PEPTIDE 1 fused to the C-terminal half of YFP) (Arabidopsis thaliana) (UniProt Q8LBM8); test: split reporter; BiFC in N. benthamiana leaves, agroinfiltration of Y^N and Y^C fusions with P19 (OD600 0.4:0.4:0.1), YFP fluorescence by confocal microscopy at 60 hpi

Molecule	binding [1]	binding [2]
VISP1-GFP (pGDGm-VISP1-GFP) (Arabidopsis thaliana)	binds	
B1		no binding

These are yes or no findings as the source states them, for the method shown. In cells and extracts the contact can be indirect. For some assays here: Binding can be weak; no strength is given. Tags and fused reporters may be left off the sequences shown.
